This is one part of the list.

The chains behind the UniProt entries cited, without tags or fusion partners.
UniProt Q0JBA9, entry or part of it: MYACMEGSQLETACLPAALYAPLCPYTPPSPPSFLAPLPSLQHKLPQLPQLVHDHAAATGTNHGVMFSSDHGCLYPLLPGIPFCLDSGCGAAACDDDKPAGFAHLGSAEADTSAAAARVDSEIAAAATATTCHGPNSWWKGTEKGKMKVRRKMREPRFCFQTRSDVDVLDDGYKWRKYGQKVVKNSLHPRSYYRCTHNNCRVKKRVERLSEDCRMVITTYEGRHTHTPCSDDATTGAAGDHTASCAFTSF

This assay concerns the target OsWRKY34 (Oryza sativa, UniProt Q0JBA9 1-250). Kind of assay: protein-binding microarray (RPBM); PBS, 2% BSA, 51.3 ng/ul salmon testes DNA, 50 uM zinc acetate, 200 nM TF, 25 C, 1 h; high values mean tight binding. The note with it: protein: recombinant; tags: N-terminal polyhistidine and DsRed monomer fusion (pET32a); label: CyDye5-dUTP incorporated in the synthesized complementary strand; 3' TTTTT single-stranded linker to array surface; dsDNA, one strand shown. The essentials:
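Per-feature fluorescence intensity (arbitrary units), read on an Axon 4000B scanner, is the binding signal. Transcription factors carrying an N-terminal polyhistidine tag and DsRed fusion were expressed in E. coli BL21-CodonPlus and purified on Ni–NTA. A custom Agilent array, made double-stranded by primer extension with Cy5-dUTP and blocked with 2% BSA, was incubated with 200 nM protein in PBS, 2% BSA, salmon testes DNA and 50 µM zinc acetate at 25 °C for 1 h and then washed.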
With “GGTGTATGACTACACCTATGAAGGTGGGCTTTTAATATGACGGAGTCACCTAGTGCAG”, the binding signal was 8210 fluorescence intensity (a.u.). Then “TTTGCAGGTCTTGCTTCTTTTGTTTGTATGTTAACATCTTCGGAGTCACCTAGTGCAG”, with 8490 fluorescence intensity (a.u.). The figure for “TGCTGGGTTGTTTAACCACTTTCTTCATCAATCTGTCTCTCGGAGTCACCTAGTGCAG” is 8840 fluorescence intensity (a.u.); for “GAGTGTGATCTTCCACATTTGTTTGTTAGTGCATTAACCCCGGAGTCACCTAGTGCAG” it is 8130 fluorescence intensity (a.u.).

For the sequence “CTTGCTACCTCTCGCGTCTCCGTCTCTGCGTTGCATTGCACGGAGTCACCTAGTGCAG”, the binding signal was 8800 fluorescence intensity (a.u.). For the sequence “CTACAAGAGATCCATGTTAGCATATTTTTCTACTTGAAAGCGGAGTCACCTAGTGCAG”, the binding signal is 8460 fluorescence intensity (a.u.). “CTTCTGCCAACGGAGGTGTGTCGTGTTCTCTCGGCCGTTGCGGAGTCACCTAGTGCAG”: the binding signal is 8260 fluorescence intensity (a.u.). Then “CTCCTCCGCAACCGCCTTACGCCACCGCCTCTCGCCGCCTCGGAGTCACCTAGTGCAG”, with 10600 fluorescence intensity (a.u.); and “AAACTGTTATGCATGTCCTATCTTTGTATCCTTCAATTCACGGAGTCACCTAGTGCAG”, with 11000 fluorescence intensity (a.u.); and “TTCCTTTTATTTTTCACTGCGACTGGCTGTCGAGAGCGAGCGGAGTCACCTAGTGCAG”, with 8730 fluorescence intensity (a.u.).

For the sequence “TTGCAAGTTCATTTCTACATGAGCTTTTGACCAGGCCTCTCGGAGTCACCTAGTGCAG”, the binding signal was 9130 fluorescence intensity (a.u.). For the sequence “CGTGCGCGCTGGAGGAGGTGGAGGTGGAGGTGGTGGTGTCCGGAGTCACCTAGTGCAG”, the binding signal is 10100 fluorescence intensity (a.u.).

Consider “TTTCCTTTTTCCTCCCTGCCGCCGCACAAAGCGCTCGAGCCGGAGTCACCTAGTGCAG”, for which the binding signal was 8850 fluorescence intensity (a.u.). The figure for “TAACAACAAGGAATTTATCATGTATTACTGCGACCATTACCGGAGTCACCTAGTGCAG” is 8360 fluorescence intensity (a.u.); for “TGCAAGTTTAGGGATCGGGATGACACAGTTGAATAAGTTTCGGAGTCACCTAGTGCAG” it is 10000 fluorescence intensity (a.u.); for “GGCAGCTGGCTCAAGAGCTCCGGGCGGGTCAAGGTCTCCTCGGAGTCACCTAGTGCAG” it is 8270 fluorescence intensity (a.u.).

Turning to “AATGTGCTTTATGTTTGTCTGTATATCTTCAAAGGTGACACGGAGTCACCTAGTGCAG”, the binding signal is 11600 fluorescence intensity (a.u.). Then “GTCCATTTCAAATATACTCGCCTGTGTTCCCGTGCGTTGACGGAGTCACCTAGTGCAG”, with 11100 fluorescence intensity (a.u.). The figure for “AATAATGATATCGTTTCCGACCATTTCTGATAGTTTTCATCGGAGTCACCTAGTGCAG” is 10400 fluorescence intensity (a.u.); for “GATTGATGTCATTTTCAACCATACCATTTTTTTAAAGTTTCGGAGTCACCTAGTGCAG” it is 8220 fluorescence intensity (a.u.).

Turning to “TTCGTCTTCGCCACCGTCTCTGTGCGGTATAGCTCTCTCTCGGAGTCACCTAGTGCAG”, the binding signal was 8620 fluorescence intensity (a.u.).

Consider “GACTAGCTCAAATGTGTCTCAAACAGTCGTTCCCGGAACACGGAGTCACCTAGTGCAG”, for which the binding signal is 9140 fluorescence intensity (a.u.). Then “CCGCCGCCCGCCATCGCCATCCACCGCCGCCGCCGCGCCGCGGAGTCACCTAGTGCAG”, with 11400 fluorescence intensity (a.u.); and “TCTCATATATGGCCTTGTTTGGCATAGGTTTGGATCCAAGCGGAGTCACCTAGTGCAG”, with 8290 fluorescence intensity (a.u.); and “TGGGTTGGGTTTGTTCTGGCTCGCACACAGCTCAGCAGCTCGGAGTCACCTAGTGCAG”, with 13500 fluorescence intensity (a.u.). The figure for “GCATCTTGATCTTCTTCTTCTTCTTATTATTATTATTATTCGGAGTCACCTAGTGCAG” is 11300 fluorescence intensity (a.u.). The figure for “TCATCCCCAAGACCTCAGCCAGGCACGCCACGCACCCACCCGGAGTCACCTAGTGCAG” is 9940 fluorescence intensity (a.u.). Turning to “GCTTTTCTATTCACCAAACTCCCAGCTTGCCGGCAACGTCCGGAGTCACCTAGTGCAG”, the binding signal is 10000 fluorescence intensity (a.u.). The figure for “TTTCCGGTTTTTCCAATATTTTTCGATACCGTTTTCATTTCGGAGTCACCTAGTGCAG” is 12800 fluorescence intensity (a.u.); for “TGATTTGTGGATTTGTGGATGGGCATGTATTGTGGATTATCGGAGTCACCTAGTGCAG” it is 10900 fluorescence intensity (a.u.); for “ACCTTACCTGCAGTGCTGCTTTCTCAAATCTTGCGACACCCGGAGTCACCTAGTGCAG” it is 9070 fluorescence intensity (a.u.). With “ACGATGGTGATGGGAGTAAATCTGTTATTCTACTTGTGCTCGGAGTCACCTAGTGCAG”, the binding signal was 9080 fluorescence intensity (a.u.). The figure for “TTTTTATCTTAGTACTCCCTCCGTGTCTTTTTTATCTAAACGGAGTCACCTAGTGCAG” is 11500 fluorescence intensity (a.u.); for “TTTGAAGTCGCTTTTTCATCTGACACATACGGTTCGCTTCCGGAGTCACCTAGTGCAG” it is 8480 fluorescence intensity (a.u.); for “CCAGTCCACCACATACTACAGTGTCAGCGTACGCGTCGTACGGAGTCACCTAGTGCAG” it is 8330 fluorescence intensity (a.u.).

Take “TATTTGCATGGCTTTGACCATTTGAGGGTAGACATTTTTGCGGAGTCACCTAGTGCAG”: the binding signal is 8980 fluorescence intensity (a.u.). Then “ATGCGTTAATAGCCCATCTCGTTTTGCGTATCTTCTTAATCGGAGTCACCTAGTGCAG”, with 9540 fluorescence intensity (a.u.). Then “TGTGCGTTCAATTTGATTTTCCTTCCAACATGTTTATTATCGGAGTCACCTAGTGCAG”, with 12200 fluorescence intensity (a.u.); and “GATGCTCACATGTCAGTGGTCAACGGCAGGCAAGCTGCTGCGGAGTCACCTAGTGCAG”, with 8810 fluorescence intensity (a.u.). In the case of “GTGTGTGTGCATGTGCGTATAAGGCATGCTTAATTTATGTCGGAGTCACCTAGTGCAG”, the binding signal is 9000 fluorescence intensity (a.u.). For the sequence “ATAGTTCGCTACTTTGCTTTTTTTTTATCTTTTTAAAATACGGAGTCACCTAGTGCAG”, the binding signal is 11200 fluorescence intensity (a.u.). The figure for “AGGCCAATCGCTTCACTCCCGTTAACTCACGATCCACTTCCGGAGTCACCTAGTGCAG” is 8810 fluorescence intensity (a.u.).

For the origin of these results see article PMC7819943, “Rice protein-binding microarrays: a tool to detect cis-acting elements near promoter regions in rice”.
